The values are deposited in ChEMBL (CHEMBL3988442, “University of Dundee, Small-Polar-MMV Screening Library” (2021)).

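Assay of Toxoplasma gondii numbers, read through their beta-galactosidase reporter with a colour substrate. Compounds at 10 µM. Higher reads as fewer parasites (inferred from which compounds were picked for retests). Of about 67,000 compounds tested this way, about 260 (0.38%) reached 50% or more in at least one test.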

Each number is a percent effect as filed. How 0% and 100% were set is not recorded. Most values in the screen are low, and negative values occur. This is an unselected part of the compounds tested.

compound	Percent Effect
O=C(c1ccc(Cl)o1)N1CCCC1c1nnc2n1CCCCC2 (centres unmarked)	18.02%
CCc1ncnc2c1CCN(Cc1cccs1)CC2.O=C(O)C(F)(F)F	4.187%
Cc1cnn(C2CN(CC(=O)NCc3ccccn3)C2)c1	5.838%
O=C(NCCOc1ccc(Cl)cc1)N1CCS(=O)(=O)CC1	9.098%
[H][C@@]12CS(=O)(=O)C[C@]1([H])N(C(=O)CN1CCCC1)CCN2Cc1[nH]cnc1C	5.653%
COC(=O)c1cc2c(=O)n(C3CCCC3)ccc2nc1C	-23.87%
Cc1cc(C)n(C2CN(CC(=O)NC3CCOCC3)C2)n1	0.05624%
Cc1ccccc1C(=O)CN1C(=O)c2ccccc2CS1(=O)=O	-0.3462%
c1cnn(CC2CN(Cc3nc(-c4ccoc4)no3)CCO2)c1 (centres unmarked)	-2.547%
CC(C)c1cc(C(=O)N2CCOC3(CCNCC3)C2)no1.O=C(O)C(F)(F)F	-9.94%
CC(C)N(C)C(=O)C1=NOC2(CCN(C(=O)c3cccn3C)C2)C1 (centres unmarked)	-2.545%
Cc1nn(C)c2c(N3CCN(C(=O)c4ccccc4)CC3)ncnc12	-3.825%
O=C(Nc1cnc(C2CC2)nc1)N1CCC(CN2CCCC2)C1 (centres unmarked)	16.42%
COCCCNC(=O)COc1ccccc1C(F)(F)F	1.978%
O=C(O)c1ccc(CCNC(=O)C2(c3ccccc3)CC2)cc1	4.201%
Cc1cc(CN(C)C(=O)c2ccc(N(C)C)nc2)no1	0.7549%
Cc1cc(C)c(CNC(=O)N(C)Cc2cccc(F)c2)c(=O)[nH]1	-27.57%
[H][C@]12CN(Cc3ccccc3CC)CC[C@@]1(O)CCN(S(=O)(=O)N(C)C)C2	-4.555%
CCNc1ncc(C(=O)N2CCc3c(nc(C)nc3N(C)C)C2)cn1	-8.997%
CCN(C(=O)CN1CCCC1c1ccc(OC)cc1)c1ccccc1 (centres unmarked)	1.429%
CC(C)n1ncc2c1NC(=O)C(C#N)C21CCCCC1 (centres unmarked)	-0.6002%
Cn1cc(CN2CCc3ccc(=O)n(Cc4ccncc4)c3CC2)cn1.O=C(O)C(F)(F)F.O=C(O)C(F)(F)F	-7.436%
O=C(CNC(=O)c1ccccc1F)NCc1ccccn1	23.57%
Cc1cc(-c2cnc(NC3CC3)nc2-c2ccc(C)o2)on1	-1.941%
CC(C)CNC(=O)C[S+]([O-])Cc1csc(C2CCCCC2)n1 (centres unmarked)	-10.38%
CC(=O)c1cccc(OC(C)C(=O)Nc2cnn(CCN(C)C)c2)c1 (centres unmarked)	11.52%
COc1cc(CNc2cc(N3CCCC3CO)ncn2)ccn1 (centres unmarked)	-7.424%
[H][C@]12CN(Cc3ccccn3)CCN1C[C@H](c1ccccc1)[C@H]2C(=O)NC	-15.2%
Cc1cc(CN(C)C(=O)C2CCS(=O)(=O)C2)no1 (centres unmarked)	-5.611%
COCCn1ccnc1C1CCCN(C(=O)CSc2nnc(C)o2)C1 (centres unmarked)	-14.92%
[H][C@]12CCN(C(=O)NC(C)C)C[C@@]1([H])OCCN(S(C)(=O)=O)C2	-0.8336%
Cc1ccnc(NC(=O)c2ccc(F)c(S(=O)(=O)NC3CC3)c2)c1	3.098%
CCNS(=O)(=O)C1CCN(C(=O)c2c(F)cc(F)cc2F)C1 (centres unmarked)	1.752%
O=C(CCc1nc(-c2cccnc2)no1)N(CC1CCOC1)C1CC1 (centres unmarked)	-4.293%
Cc1cccc2c(CCNC(=O)NCCC[S+](C)[O-])c[nH]c12 (centres unmarked)	-7.08%
COCCN1C(=O)CC(N2CCN(c3ccccc3)CC2)C1=O (centres unmarked)	-3.753%
c1cnn(CC2CN(CCc3ccncc3)CCO2)c1 (centres unmarked)	3.485%
O=C(Cc1cn2ccccc2n1)N1CCCC(n2cccn2)C1 (centres unmarked)	17.93%
Cc1cc(C(=O)NCC(Cc2cccc(F)c2)N2CCCCC2=O)no1 (centres unmarked)	18.51%
O=C1CCCN1C(CNS(=O)(=O)C1CC1)Cc1cccc(F)c1 (centres unmarked)	-4.793%
CCS(=O)(=O)CCNC(=O)NC(C)c1ccc(C)s1 (centres unmarked)	4.187%
CCc1ccc(CNc2cc(-c3ccoc3C)nn2CCO)o1	-5.167%
Cn1nc(C#N)c2c1CN(C(=O)c1c[nH]cn1)CCC2	1.482%
CSc1nnc(C2CCN(C(=O)N3CCCC3)CC2)n1C	-6.412%
Cc1nc(C)n(CC(=O)N2CCCC(c3nc(C)n4c(C)csc34)C2)n1 (centres unmarked)	4.117%
NCCO[C@H]1C[C@@H](O)C12CCN(C(=O)COc1cccc(Cl)c1)CC2	3.953%
CCC[C@H]1CN(Cc2ccccc2C#N)C[C@@H]1NS(C)(=O)=O	-1.666%
CN(C)Cc1cn2c(n1)CN(C1CCOC1)CC2 (centres unmarked)	27.48%
CC(C)c1nc(C2CCCN2CCCc2nc3ccccc3o2)no1 (centres unmarked)	-0.5169%
CCN(CC(=O)NC)C(=O)Cc1csc(C(C)C)n1	-1.973%
Cc1[nH]ncc1CCCNC(=O)Nc1ccccc1	0.3793%
Cc1nc(CN(C)CC2CCCN(CCc3ccc(Cl)cc3)C2)n(C)n1 (centres unmarked)	29.68%
N#Cc1nccnc1NCCC1CCN(CC(F)(F)F)CC1	-2.967%
Cn1cccc1C(=O)N1CCc2ncnc(N3CCOCC3)c2CC1	-13.05%
COC(=O)[C@@H](NC(=O)c1coc(COc2cccc(F)c2)n1)C(C)C	-10.18%
N#Cc1ccc(C(=O)NCC2(N3CCOCC3)CCCC2)nc1	3.611%
CCn1cnnc1CCNC(=O)C(C)(C)c1cccc(Cl)c1	3.241%
CCCC(=O)N(CCCN1CCOCC1)c1nc2c(C)c(C)ccc2s1.Cl	11.58%

Once more, the final 7:

* Cc1nc(CN(C)CC2CCCN(CCc3ccc(Cl)cc3)C2)n(C)n1 (centres unmarked) | 29.68%
* N#Cc1nccnc1NCCC1CCN(CC(F)(F)F)CC1 | -2.967%
* Cn1cccc1C(=O)N1CCc2ncnc(N3CCOCC3)c2CC1 | -13.05%
* COC(=O)[C@@H](NC(=O)c1coc(COc2cccc(F)c2)n1)C(C)C | -10.18%
* N#Cc1ccc(C(=O)NCC2(N3CCOCC3)CCCC2)nc1 | 3.611%
* CCn1cnnc1CCNC(=O)C(C)(C)c1cccc(Cl)c1 | 3.241%
* CCCC(=O)N(CCCN1CCOCC1)c1nc2c(C)c(C)ccc2s1.Cl | 11.58%